Assay results reported in PubChem BioAssay AID2685 (National Center for Advancing Translational Sciences (NCATS), 2010).
Some of the results follow. Shown are side measurements of this screen, not its main read-out; they come without a call. Most of these compounds were active or inconclusive in the main read-out, so they are no random draw. Potencies come from curve fits of mixed quality, noted in brackets.

Experiment: qHTS Assay for Lipid Storage Modulators in Drosophila S3 Cells;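 as to cell number change: cells counted by Cell Tracker Red CMTPX staining in the red channel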
Settings: BODIPY lipid droplet fluorescence, 18-24 h; for cell number change: measured here: cell count max response, cells fed with added oleic acid
Method in brief: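 Laser-scanning cytometry quantifies lipid droplet accumulation (500–530 nm total intensity; droplet/cell object ratio) in oleic acid-fed (400 uM added) Drosophila S3 cells treated with a concentration series. 20 uM Triacsin C defined 100% inhibition.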

[1] = measured here: cell number channel AC50, cells fed with added oleic acid
[2] = measured here: lipid fluorescence (Fed channel) AC50, cells fed with added oleic acid

| Structure (SMILES) | cell number change [%] | AC50 [1] | AC50 [2] |
| --- | --- | --- | --- |
| CCOc1ncccc1C(=O)Nc1cc(S(=O)(=O)N2CCCCC2)ccc1C | 6.59 | 920 nM [rising, partial curve, poor fit] | 580 nM [rising, full curve] |
| Cc1ccc(N2C(=O)c3ccc(C(=O)O)cc3C2=O)c(C)c1 | -9.16 | – | – |
| COCc1cc(C)nc2sc3c(=O)oc(C)nc3c12 | -14 | – | 517 nM [rising, single point] |
| C#CCOCCOCCOCCNc1nc(N2CCN(C(=O)[C@H](Cc3cc4ccccc4[nH]3)n3cc([C@@H](N)Cc4ccc(O)cc4)nn3)CC2)nc(N2CCN(C(=O)[C@H](Cc3cc4ccccc4[nH]3)n3cc([C@@H](N)CC(C)C)nn3)CC2)n1 | -35.9 | 32600 nM [falling, single point] | 32600 nM [falling, single point] |
| O=C(Cc1ccccc1)Nc1nnc(-c2cccs2)s1 | 75.3 | 11600 nM [rising, partial curve] | 8200 nM [rising, partial curve] |
| CCCCc1nc2ccccc2c(NC(=O)CN(CC)CC)c1CCC | 9.83 | 651 nM [rising, single point] | – |
| Cc1cc(OCc2cc(C(=O)N3CCC(Oc4cccnc4)CC3)no2)cc(C)c1Cl | -10.4 | – | – |
| CCC(C)(C)NC(=O)C(C(C)C)N(CC1CCCO1)C(=O)CNS(=O)(=O)c1ccc(F)cc1 (stereo not drawn) | -20.5 | – | – |
| O=Nc1c(O)n(Cc2ccc(Cl)cc2)c2ccccc12 | -50.9 | 20600 nM [falling, partial curve] | 29100 nM [falling, single point] |
| CCCCC(=O)Nc1ccccc1Oc1ccccc1 | 20.3 | – | 1840 nM [rising, full curve, poor fit] |
| O=C(c1cc(-c2ccc(Br)cc2)on1)N1CCOCC1 | 25.7 | – | 580 nM [falling, single point] |
| CCCc1ccc(S(=O)(=O)N2CCN(C(C)C(=O)NCc3ccccc3)CC2)cc1 (stereo not drawn) | 81.1 | 20600 nM [rising, partial curve] | – |
| Cc1ccc(OCC(=O)NS(=O)(=O)c2ccccc2)cc1 | -7.32 | – | – |
| Cc1nc(OCc2ccccc2)c2sc3nc4c(cc3c2n1)COC(C)(C)C4 | -23.2 | 326 nM [rising, full curve, poor fit] | 164 nM [rising, full curve, poor fit] |
| CN(CC(=O)Nc1cccc(F)c1)C(=O)c1ccc(-c2cccc(C(F)(F)F)c2)o1 | -54.5 | 16400 nM [falling, partial curve] | – |
| Cc1ccccc1NC(=O)c1ccccc1NC(=O)c1ccco1 | -8.09 | – | 1840 nM [rising, partial curve] |
| O=C(NCCCN1CCN(c2ccccc2)CC1)Nc1ccccc1C(F)(F)F | 9.35 | – | 20600 nM [rising, single point] |
| C=CCn1c(SCC(=O)C(C)(C)C)nnc1-c1cccs1 | 4.66 | – | 259 nM [rising, full curve, poor fit] |
| COC(=O)C1C(=O)c2c([nH]c(C(=O)OCCSC)c2C)CC1C (stereo not drawn) | -37.8 | 14600 nM [falling, partial curve, poor fit] | 13000 nM [falling, partial curve] |
| CC[n+]1c(C)sc2sc3ccccc3c21 | -53.9 | 29100 nM [falling, single point] | 820 nM [falling, full curve] |
| CC(=O)Nc1ccc(NC(=O)CSc2ccc(-c3cccs3)nn2)cc1 | -10.8 | – | – |
| CN1CCN(C(=O)CCCN2C(=O)/C(=C/c3cccc(Br)c3)SC2=S)CC1 | -3.23 | – | – |
| CCOc1ccccc1N1CC(O)=C(c2nc3ccccc3s2)C1=N | – | – | 2310 nM [rising, partial curve] |
| CC(C)c1ccc(-c2nnc(N)s2)cc1 | 2.01 | – | 2590 nM [rising, full curve] |
| Nc1nonc1C(=O)NCCNCc1c(OCc2ccccc2F)ccc2ccccc12 | -3.56 | – | – |
| Cc1ccc(C)c(OCCCN2CCNCC2)c1 | 27.2 | 130 nM [rising, full curve, poor fit] | 820 nM [rising, full curve] |
| COc1ccc(S(=O)(=O)N2CCCOC2CNC(=O)C(=O)NCc2cccnc2)cc1 (stereo not drawn) | 7.04 | – | 6510 nM [rising, partial curve] |
| COc1ccc(N2CC(C)Cn3c2nc2c3c(=O)n(Cc3ccc(F)cc3)c(=O)n2C)c(OC)c1 (stereo not drawn) | 2.17 | – | 2060 nM [rising, partial curve] |
| CCCS(=O)(=O)c1c(S(=O)(=O)CCC)c2ccc(C(N)=O)cn2c1C(=O)c1ccccc1 | 13.3 | – | 580 nM [falling, single point] |

Shown as tab-separated lines: entries from further up.
Structure (SMILES)	cell number change [%]	AC50 [1]	AC50 [2]
CN(CC(=O)Nc1cccc(F)c1)C(=O)c1ccc(-c2cccc(C(F)(F)F)c2)o1	-54.5	16400 nM [falling, partial curve]	–
Cc1ccccc1NC(=O)c1ccccc1NC(=O)c1ccco1	-8.09	–	1840 nM [rising, partial curve]
